Test results published in US20250312497A1, “METHOD OF TREATING PROSTATE CANCER” (Novartis AG, priority 2022, published 2025).
For at least one compound, name, drawing or mass did not settle the structure.

What was measured:
[1] = tested on: PSMA-positive metastatic castration-resistant prostate cancer (mCRPC); assay: PSMAfore phase III: overall survival (OS), interim analysis; format: in vivo, human; conditions: first interim analysis DCO 2 Oct 2022
Method: After radiographic progression, follow up for survival will continue.
OS is hierarchically tested based on a three-look group sequential design using a Lan DeMets (O'Brien Flemming) alpha spending function. The final OS analysis was not planned to be performed at the time of the interim rPFS analysis, which is reported in this FIR.
Following the hierarchical testing strategy defined in the study protocol, OS was tested once rPFS was statistically significant. The one-sided alpha level (<0.000000001012) required for a significant OS difference in this first interim analysis was calculated from the pre-specified alpha spending function and the number of events observed at the time of rPFS analysis.
Results in terms of the OS at the time of the first interim OS analysis are based on 13.5% (40/297 deaths).
The second interim analysis for OS is planned after additional follow up when approximately 75% (223/297) of the targeted number of deaths/events have occurred. If OS is not statistically significant at the second interim analysis, a final analysis is planned when approximately 297 deaths have been recorded.

[2] = tested on: PSMA-positive metastatic castration-resistant prostate cancer (mCRPC); assay: PSMAfore phase III: radiographic progression-free survival (rPFS) by blinded independent central review per PCWG3; format: in vivo, human; conditions: full analysis set
Method: Radiographic progression-free survival (rPFS) based on independent central review as per PCWG3 criteria is the primary endpoint and overall survival (OS) is the key secondary endpoint for the study. The statistical design of the study is such that, to be declared positive, the study would be required to reach statistical significance on the primary analysis of rPFS.
The primary analysis of rPFS and the first interim analysis of OS were performed using all patients randomized on or before the data cutoff date of 2 Oct. 2022 using a one-sided alpha level of 2.5%. One randomized and treated patient was excluded from Full Analysis Set due to informed consent not obtained per due process (INCL1A PD).

O=C([O-])CN1CCN(CC(=O)[O-])CCN(CC(=O)NCC2CCC(C(=O)N[C@@H](Cc3ccc4ccccc4c3)C(=O)NCCCC[C@H](NC(=O)N[C@@H](CCC(=O)O)C(=O)O)C(=O)O)CC2)CCN(CC(=O)[O-])CC1.[177Lu+3] (stereo partly drawn) [[177Lu]Lu-PSMA-617, lutetium (177Lu) vipivotide tetraxetan]
OS Kaplan-Meier estimate (95% CI) at 3 months [1]: 98.5 [95.4, 99.5] %
OS Kaplan-Meier estimate (95% CI) at 9 months [1]: 87.0 [78.6, 92.3] %
OS Kaplan-Meier estimate (95% CI) at 12 months [1]: 74.7 [58.2, 85.5] %
OS 25th percentile (95% CI) ([1]; Kaplan-Meier): 11.96 [9.95, NE]
Hazard ratio (95% CI) OS [177Lu]Lu-PSMA-617 vs ARDT ([1]; stratified Cox PH model): 1.07 [0.57, 2.03]
rPFS Kaplan-Meier estimate (95% CI) at 3 months ([2]; DCO 2 Oct 2022): 83.2 [76.7, 88.0] %
rPFS Kaplan-Meier estimate (95% CI) at 6 months ([2]; DCO 2 Oct 2022): 68.5 [60.3, 75.4] %
rPFS Kaplan-Meier estimate (95% CI) at 9 months ([2]; DCO 2 Oct 2022): 52.9 [41.7, 62.9] %
rPFS 25th percentile (95% CI) ([2]; DCO 2 Oct 2022, Kaplan-Meier): 4.37 [3.35, 6.05]
rPFS Kaplan-Meier estimate (95% CI) at 3 months ([2]; DCO 21 Jun 2023): 84.5 [78.9, 88.6] %
rPFS Kaplan-Meier estimate (95% CI) at 6 months ([2]; DCO 21 Jun 2023): 71.4 [64.9, 76.9] %
rPFS Kaplan-Meier estimate (95% CI) at 9 months ([2]; DCO 21 Jun 2023): 58.0 [51.0, 64.4] %
rPFS Kaplan-Meier estimate (95% CI) at 12 months ([2]; DCO 21 Jun 2023): 50.3 [42.9, 57.2] %
rPFS 25th percentile (95% CI) ([2]; DCO 21 Jun 2023, Kaplan-Meier): 5.72 [3.71, 6.08]
rPFS 75th percentile (95% CI) ([2]; DCO 21 Jun 2023, Kaplan-Meier): 19.65 [17.15, NE]
